Laboratory results reported in the supplement of paper PMC10849652.
This is one part of the list.

Protein sequences, listed by entry. Tags and fused reporters are not part of them. Lines headed by an entry give the natural chain unless they say otherwise; changes in a name come on top.
UniProt Q96C36: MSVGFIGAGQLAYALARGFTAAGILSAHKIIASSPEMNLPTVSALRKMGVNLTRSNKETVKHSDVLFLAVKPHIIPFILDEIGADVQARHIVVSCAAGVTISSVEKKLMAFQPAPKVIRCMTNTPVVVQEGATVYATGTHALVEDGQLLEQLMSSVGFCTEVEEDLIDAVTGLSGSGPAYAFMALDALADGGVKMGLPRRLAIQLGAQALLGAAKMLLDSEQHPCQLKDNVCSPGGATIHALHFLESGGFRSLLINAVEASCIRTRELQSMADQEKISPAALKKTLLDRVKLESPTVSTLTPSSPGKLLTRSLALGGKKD
UniProt O95456: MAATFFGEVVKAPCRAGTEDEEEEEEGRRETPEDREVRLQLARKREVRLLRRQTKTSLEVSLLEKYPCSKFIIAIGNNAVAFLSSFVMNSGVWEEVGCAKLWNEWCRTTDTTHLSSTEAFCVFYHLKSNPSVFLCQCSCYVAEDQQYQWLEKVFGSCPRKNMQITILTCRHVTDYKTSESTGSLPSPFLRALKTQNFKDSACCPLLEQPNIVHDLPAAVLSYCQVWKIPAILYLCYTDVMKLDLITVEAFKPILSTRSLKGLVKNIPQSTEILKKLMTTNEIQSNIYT
UniProt Q5JS54: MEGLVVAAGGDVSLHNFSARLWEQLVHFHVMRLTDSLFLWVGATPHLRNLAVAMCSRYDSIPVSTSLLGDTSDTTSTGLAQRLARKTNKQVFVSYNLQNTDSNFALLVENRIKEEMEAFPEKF
UniProt Q9NR77: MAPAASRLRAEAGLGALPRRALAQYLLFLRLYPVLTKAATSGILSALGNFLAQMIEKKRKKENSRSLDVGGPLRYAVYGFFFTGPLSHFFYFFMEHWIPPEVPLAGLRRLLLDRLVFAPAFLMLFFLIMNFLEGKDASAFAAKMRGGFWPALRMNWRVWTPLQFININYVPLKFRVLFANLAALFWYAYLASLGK
UniProt P26599: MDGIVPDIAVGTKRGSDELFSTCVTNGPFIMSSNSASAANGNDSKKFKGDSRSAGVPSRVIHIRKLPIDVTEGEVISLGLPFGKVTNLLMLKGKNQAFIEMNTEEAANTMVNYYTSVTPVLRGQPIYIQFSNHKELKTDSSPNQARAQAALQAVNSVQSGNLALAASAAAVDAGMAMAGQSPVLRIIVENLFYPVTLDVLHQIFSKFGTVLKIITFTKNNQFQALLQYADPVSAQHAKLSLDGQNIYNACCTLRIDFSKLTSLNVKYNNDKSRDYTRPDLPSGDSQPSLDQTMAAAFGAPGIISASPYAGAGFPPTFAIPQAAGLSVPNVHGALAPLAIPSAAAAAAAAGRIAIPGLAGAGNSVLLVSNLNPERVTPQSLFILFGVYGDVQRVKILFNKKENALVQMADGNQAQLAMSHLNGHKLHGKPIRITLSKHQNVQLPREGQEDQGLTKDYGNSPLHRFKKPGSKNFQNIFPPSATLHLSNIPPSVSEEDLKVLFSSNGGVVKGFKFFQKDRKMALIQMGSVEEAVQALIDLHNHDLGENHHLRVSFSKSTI
UniProt Q8TBF2: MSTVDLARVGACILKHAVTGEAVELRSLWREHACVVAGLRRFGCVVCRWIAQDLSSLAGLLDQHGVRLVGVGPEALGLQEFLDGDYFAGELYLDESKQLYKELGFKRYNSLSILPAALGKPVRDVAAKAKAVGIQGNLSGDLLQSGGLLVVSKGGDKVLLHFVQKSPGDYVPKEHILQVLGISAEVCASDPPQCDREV
UniProt Q53H96: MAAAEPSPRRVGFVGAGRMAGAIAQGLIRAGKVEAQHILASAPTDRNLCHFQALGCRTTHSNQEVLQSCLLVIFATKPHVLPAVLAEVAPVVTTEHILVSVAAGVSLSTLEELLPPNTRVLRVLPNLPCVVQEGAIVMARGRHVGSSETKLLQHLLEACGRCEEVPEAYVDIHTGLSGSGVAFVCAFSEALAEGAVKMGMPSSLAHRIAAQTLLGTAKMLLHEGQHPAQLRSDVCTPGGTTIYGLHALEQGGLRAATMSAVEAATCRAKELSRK
UniProt Q6ZRP7: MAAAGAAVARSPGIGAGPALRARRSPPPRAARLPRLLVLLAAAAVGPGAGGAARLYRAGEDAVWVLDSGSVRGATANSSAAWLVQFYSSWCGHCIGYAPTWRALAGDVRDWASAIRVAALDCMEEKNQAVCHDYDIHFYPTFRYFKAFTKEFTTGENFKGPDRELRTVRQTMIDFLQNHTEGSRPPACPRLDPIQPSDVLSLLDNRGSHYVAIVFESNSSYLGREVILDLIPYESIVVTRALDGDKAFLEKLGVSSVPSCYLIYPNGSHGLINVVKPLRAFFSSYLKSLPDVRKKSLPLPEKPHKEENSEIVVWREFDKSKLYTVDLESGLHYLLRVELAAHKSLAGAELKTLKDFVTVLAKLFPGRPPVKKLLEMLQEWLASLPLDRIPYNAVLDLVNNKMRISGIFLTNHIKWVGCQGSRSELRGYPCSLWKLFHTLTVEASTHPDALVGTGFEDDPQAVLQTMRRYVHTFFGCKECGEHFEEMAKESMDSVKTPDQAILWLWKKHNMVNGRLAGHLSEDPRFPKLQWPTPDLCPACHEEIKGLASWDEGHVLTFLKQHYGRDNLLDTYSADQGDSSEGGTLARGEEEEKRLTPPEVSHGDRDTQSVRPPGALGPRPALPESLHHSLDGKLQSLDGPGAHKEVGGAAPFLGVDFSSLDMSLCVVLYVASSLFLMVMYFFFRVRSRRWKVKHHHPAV
UniProt O14818: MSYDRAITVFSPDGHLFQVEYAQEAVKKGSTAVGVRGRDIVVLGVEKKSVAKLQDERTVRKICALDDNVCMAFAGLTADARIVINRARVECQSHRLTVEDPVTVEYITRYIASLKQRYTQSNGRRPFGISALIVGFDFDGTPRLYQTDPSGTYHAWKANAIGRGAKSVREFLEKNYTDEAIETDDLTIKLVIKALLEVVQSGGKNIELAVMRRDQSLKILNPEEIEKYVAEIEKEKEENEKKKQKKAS
UniProt O75475: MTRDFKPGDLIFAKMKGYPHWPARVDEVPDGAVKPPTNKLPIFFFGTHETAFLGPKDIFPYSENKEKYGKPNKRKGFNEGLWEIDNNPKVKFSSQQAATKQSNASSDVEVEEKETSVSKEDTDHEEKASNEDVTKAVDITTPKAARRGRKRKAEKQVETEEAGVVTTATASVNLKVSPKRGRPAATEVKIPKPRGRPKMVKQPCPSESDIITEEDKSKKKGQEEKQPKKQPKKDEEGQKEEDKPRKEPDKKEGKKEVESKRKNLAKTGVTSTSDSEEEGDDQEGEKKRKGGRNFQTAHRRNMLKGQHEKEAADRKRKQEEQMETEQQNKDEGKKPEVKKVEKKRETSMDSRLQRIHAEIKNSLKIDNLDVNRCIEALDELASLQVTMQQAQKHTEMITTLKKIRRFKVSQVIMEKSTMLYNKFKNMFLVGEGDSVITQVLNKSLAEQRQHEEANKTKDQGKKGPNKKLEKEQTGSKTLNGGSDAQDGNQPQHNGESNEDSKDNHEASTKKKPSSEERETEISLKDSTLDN
UniProt P25786: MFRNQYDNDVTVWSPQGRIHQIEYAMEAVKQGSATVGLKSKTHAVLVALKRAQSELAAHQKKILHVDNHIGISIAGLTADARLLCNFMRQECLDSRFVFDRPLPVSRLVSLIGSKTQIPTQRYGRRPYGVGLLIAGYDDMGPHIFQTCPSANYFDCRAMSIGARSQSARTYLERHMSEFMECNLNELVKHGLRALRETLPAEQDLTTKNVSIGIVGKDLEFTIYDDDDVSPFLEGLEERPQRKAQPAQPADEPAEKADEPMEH
UniProt P55036: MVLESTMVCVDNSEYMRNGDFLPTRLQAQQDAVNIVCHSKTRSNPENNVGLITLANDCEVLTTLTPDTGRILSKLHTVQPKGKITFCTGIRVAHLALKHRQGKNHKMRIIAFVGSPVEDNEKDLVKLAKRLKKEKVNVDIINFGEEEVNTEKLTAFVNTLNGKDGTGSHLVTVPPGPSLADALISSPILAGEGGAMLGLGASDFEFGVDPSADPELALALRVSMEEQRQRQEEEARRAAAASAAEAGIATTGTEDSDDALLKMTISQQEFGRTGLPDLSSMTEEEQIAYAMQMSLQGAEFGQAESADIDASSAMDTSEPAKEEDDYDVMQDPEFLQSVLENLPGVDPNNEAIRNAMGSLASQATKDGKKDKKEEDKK
UniProt Q9NRG1: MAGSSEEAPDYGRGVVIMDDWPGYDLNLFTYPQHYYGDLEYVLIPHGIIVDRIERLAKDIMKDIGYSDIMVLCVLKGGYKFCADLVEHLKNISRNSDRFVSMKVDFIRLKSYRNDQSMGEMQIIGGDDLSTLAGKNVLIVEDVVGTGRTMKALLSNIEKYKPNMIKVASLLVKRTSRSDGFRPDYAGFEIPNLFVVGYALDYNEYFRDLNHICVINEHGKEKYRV
UniProt Q8TB72: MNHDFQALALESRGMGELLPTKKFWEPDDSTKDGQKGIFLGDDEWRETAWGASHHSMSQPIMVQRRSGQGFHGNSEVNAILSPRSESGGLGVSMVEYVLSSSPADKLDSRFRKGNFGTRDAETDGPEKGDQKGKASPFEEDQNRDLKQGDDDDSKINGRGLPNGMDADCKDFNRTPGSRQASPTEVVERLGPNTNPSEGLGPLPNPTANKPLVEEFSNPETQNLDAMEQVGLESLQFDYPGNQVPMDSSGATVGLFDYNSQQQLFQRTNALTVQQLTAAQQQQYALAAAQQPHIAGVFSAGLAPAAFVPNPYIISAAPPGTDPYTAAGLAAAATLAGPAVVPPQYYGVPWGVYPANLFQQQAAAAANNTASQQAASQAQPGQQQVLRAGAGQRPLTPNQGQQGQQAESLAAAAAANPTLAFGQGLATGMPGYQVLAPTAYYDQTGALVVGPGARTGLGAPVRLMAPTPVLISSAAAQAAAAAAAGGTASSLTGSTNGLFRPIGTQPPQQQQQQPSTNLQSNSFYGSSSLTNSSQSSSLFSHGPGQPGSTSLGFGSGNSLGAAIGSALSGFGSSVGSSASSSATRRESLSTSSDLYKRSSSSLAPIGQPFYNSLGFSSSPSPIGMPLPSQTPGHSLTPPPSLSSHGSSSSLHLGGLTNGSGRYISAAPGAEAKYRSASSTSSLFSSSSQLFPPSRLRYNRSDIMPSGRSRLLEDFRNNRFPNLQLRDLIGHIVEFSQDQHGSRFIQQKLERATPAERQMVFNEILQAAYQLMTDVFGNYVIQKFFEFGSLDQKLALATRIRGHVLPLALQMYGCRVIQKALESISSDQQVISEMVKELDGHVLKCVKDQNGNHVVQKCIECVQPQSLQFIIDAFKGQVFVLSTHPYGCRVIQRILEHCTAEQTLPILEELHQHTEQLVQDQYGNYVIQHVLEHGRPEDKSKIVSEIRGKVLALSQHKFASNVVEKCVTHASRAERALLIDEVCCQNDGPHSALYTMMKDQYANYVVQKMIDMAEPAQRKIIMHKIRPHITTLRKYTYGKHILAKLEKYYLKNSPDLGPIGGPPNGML
UniProt P78330: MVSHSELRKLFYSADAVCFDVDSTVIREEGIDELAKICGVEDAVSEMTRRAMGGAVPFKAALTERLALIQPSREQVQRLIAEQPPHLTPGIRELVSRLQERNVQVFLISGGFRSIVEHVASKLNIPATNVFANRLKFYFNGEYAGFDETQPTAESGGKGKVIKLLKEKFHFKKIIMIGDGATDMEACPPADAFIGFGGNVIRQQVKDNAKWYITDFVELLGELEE

Columns and labels:
Assay in all cases: log2 fold change, soluble protein after heating vs DMSO (PISA); higher = thermal stabilisation; K562 cells, 10 uM, 30 min; active = over 0.2 and 3.5 SD of the protein, either way, in both replicates (recomputed)
[1] = compound: CC1=C(C=C(C=C1)NC(=O)C2=CC(=CC=C2)C(C)(C)C#N)NC3=CC4=C(C=C3)N=CN(C4=O)C
In short: (§1)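 Soluble protein was quantified by TMTpro 16plex LC-MS/MS after channel sums were equalised. It was obtained as the supernatant after 21,000xg for 90 min from pooled aliquots of K562 cells (2×10^6 cells/mL, 10 μM compound, 30 min) heated for 3 min across 48°C-58°C and extracted in PBS with 0.5% NP-40 at 4°C. Thermal stability values are relative to control samples and come from duplicates. They are given as log2 fold changes.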

[2] = compound: CC1=C(C=C(C=C1)NC(=O)C2=CC(=CC=C2)N(C)C)NC(=O)C3=CC=C(C=C3)O
In short: as §1

[3] = compound: CC1=CC=C(C=C1)SC2=C3C=C(SC3=CN=C2)C(=O)N
In short: as §1

[4] = compound: CC1=NC(=CC=C1)C2=C(N=C(N2)C(C)(C)C)C3=CC4=NC=CN=C4C=C3
In short: as §1

Nexturastat A = compound: CCCCN(Cc1ccc(C(=O)NO)cc1)C(=O)Nc1ccccc1 [Nexturastat A]
In short: as §1

vemurafenib = compound: CCCS(=O)(=O)Nc1ccc(F)c(C(=O)c2c[nH]c3ncc(-c4ccc(Cl)cc4)cc23)c1F [vemurafenib]
In short: as §1

[5] = compound: CCCS(=O)(=O)Nc1ccc(F)c(C(=O)c2c[nH]c3ncc(Cl)cc23)c1F
In short: as §1

[6] = compound: CCCc1cc(C)[nH]c(=O)c1CNC(=O)c1cc(-c2ccnc(N3CCN(C)CC3)c2)cc2c1cnn2C(C)C
In short: as §1

givinostat = compound: CCN(CC)Cc1ccc2cc(COC(=O)Nc3ccc(C(=O)NO)cc3)ccc2c1 [givinostat]
In short: as §1

barasertib = compound: CCN(CCCOc1ccc2c(Nc3cc(CC(=O)Nc4cccc(F)c4)[nH]n3)ncnc2c1)CCOP(=O)(O)O [barasertib]
In short: as §1

[7] = compound: CC[C@@H]1C(=O)N(C)c2cnc(Nc3ccc(C(=O)NC4CCN(C)CC4)cc3OC)nc2N1C1CCCC1
In short: as §1

volasertib = compound: CC[C@@H]1C(=O)N(C)c2cnc(Nc3ccc(C(=O)N[C@H]4CC[C@H](N5CCN(CC6CC6)CC5)CC4)cc3OC)nc2N1C(C)C [volasertib]
In short: as §1

[8] = compound: CC[C@H](C)N1C=C(C2=C(C=C(C=C21)C3=CN=C(C=C3)N4CCNCC4)C(=O)NCC5=C(C=C(NC5=O)C)C)C
In short: as §1

epoxomicin = compound: CC[C@H](C)[C@@H](C(=O)N[C@@H]([C@@H](C)O)C(=O)N[C@@H](CC(C)C)C(=O)[C@]1(CO1)C)NC(=O)[C@H]([C@@H](C)CC)N(C)C(=O)C [epoxomicin]
In short: as §1

[9] = compound: CCn1c(C(=O)N(C2CC2)C2CC2)cc2c3c(ncn3C)c(Nc3cc(C)n(C)n3)nc21
In short: as §1

[10] = compound: CCn1cc(-c2ccnc3[nH]c(-c4cccc(CN(C)C)c4)cc23)c(-c2ccc(NC(=O)N(C)C)cc2)n1
In short: as §1

[11] = compound: CN(C)CC(=O)Nc1ccc2[nH]c(=O)c3ccccc3c2c1
In short: as §1

rosiglitazone = compound: CN(CCOC1=CC=C(C=C1)C[C@H]2C(=O)NC(=O)S2)C3=CC=CC=N3 (racemic) [rosiglitazone]
In short: as §1

[12] = compound: CN1C2=C(C3=C1C(=O)N(N=C3)CC4=CC(=CC=C4)N)SC(=C2)S(=O)C
In short: as §1

[13] = compound: CN1CCC(CNc2ccc3ncc(-c4cccc(OC(F)(F)F)c4)n3n2)CC1
In short: as §1

Measured: log2 fold change

PYCR2 (UniProt Q96C36)
inactive: [1] 0.026 | [2] 0.01 | [3] 0.014 | [4] 0.041 | Nexturastat A -0.089 | vemurafenib 0.016 | [5] 0.03 | [6] 0.005 | givinostat -0.022 | barasertib -0.022 | [7] -0.012 | volasertib 0.056 | [8] -0.029 | epoxomicin -0.002 | [9] 0.013 | [10] -0.073 | [11] -0.011 | rosiglitazone -0.02 | [12] -0.04 | [13] 0.062

PSMG1 (UniProt O95456)
inactive: [1] 0.034 | [2] 0.006 | [3] 0.001 | [4] 0.041 | Nexturastat A -0.078 | vemurafenib -0.002 | [5] -0.01 | [6] -0.019 | givinostat -0.014 | barasertib 0.028 | [7] 0.004 | volasertib 0.041 | [8] -0.028 | epoxomicin 0.041 | [9] 0.028 | [10] -0.018 | [11] -0.038 | rosiglitazone -0.011 | [12] -0.015 | [13] -0.013

PSMG4 isoform 2 (UniProt Q5JS54)
inactive: [1] 0.099 | [2] -0.095 | [3] 0.061 | [4] -0.069 | Nexturastat A -0.099 | vemurafenib 0.017 | [5] 0.13 | [6] 0.405 | givinostat -0.067 | barasertib -0.019 | [7] 0.012 | volasertib -0.021 | [8] 0.074 | epoxomicin 0.201 | [9] -0.009 | [10] -0.107 | [11] 0.02 | rosiglitazone -0.082 | [12] -0.072 | [13] 0.208

PXMP2 (UniProt Q9NR77)
inactive: [1] 0.024 | [2] 0.006 | [3] 0.02 | [4] 0.039 | Nexturastat A -0.078 | vemurafenib 0.027 | [5] -0.012 | [6] -0.082 | givinostat 0.03 | barasertib -0.004 | [7] 0.036 | volasertib -0.021 | [8] -0.024 | epoxomicin -0.038 | [9] 0.039 | [10] -0.034 | [11] 0.044 | rosiglitazone -0.016 | [12] -0.025 | [13] 0.017

PTBP1 (UniProt P26599)
inactive: [1] 0.076 | [2] -0.053 | [3] 0.074 | [4] 0.049 | Nexturastat A 0.073 | vemurafenib 0.065 | [5] 0.088 | [6] 0.003 | givinostat 0.046 | barasertib -0.029 | [7] -0.112 | volasertib -0.195 | [8] 0.065 | epoxomicin 0.01 | [9] -0.018 | [10] -0.054 | [11] 0.022 | rosiglitazone -0.017 | [12] -0.057 | [13] -0.085

PRXL2B isoform 3 (UniProt Q8TBF2)
inactive: [1] 0.033 | [2] -0.023 | [3] 0.012 | [4] 0.07 | Nexturastat A -0.177 | vemurafenib -0.008 | [5] 0.012 | [6] 0.026 | givinostat -0.062 | barasertib 0.003 | [7] -0.067 | volasertib 0.015 | [8] 0.04 | epoxomicin 0.008 | [9] -0.024 | [10] 0.026 | [11] -0.012 | rosiglitazone 0.045 | [12] -0.03 | [13] -0.072

PYCR3 (UniProt Q53H96)
inactive: [1] 0.019 | [2] -0.024 | [3] 0.024 | [4] -0.024 | Nexturastat A 0.013 | vemurafenib -0.024 | [5] -0.014 | [6] -0.051 | givinostat -0.006 | barasertib -0.006 | [7] 0.002 | volasertib 0.006 | [8] -0.016 | epoxomicin -0.041 | [9] -0.003 | [10] 0.003 | [11] -0.01 | rosiglitazone 0.014 | [12] -0.053 | [13] 0.034

QSOX2 (UniProt Q6ZRP7)
inactive: [1] 0.011 | [2] -0.008 | [3] 0.016 | [4] -0.022 | Nexturastat A -0.063 | vemurafenib 0.01 | [5] -0.005 | [6] -0.084 | givinostat -0.015 | barasertib -0.025 | [7] -0.13 | volasertib -0.085 | [8] -0.034 | epoxomicin -0.097 | [9] 0.043 | [10] 0.006 | [11] 0.02 | rosiglitazone 0.006 | [12] -0.05 | [13] 0.033

Looked up one by one from the entries so far (2):
PYCR2 (UniProt Q96C36)
inactive: [1] 0.026 | [2] 0.01 | [3] 0.014 | [4] 0.041 | Nexturastat A -0.089 | vemurafenib 0.016 | [5] 0.03 | [6] 0.005 | givinostat -0.022 | barasertib -0.022 | [7] -0.012 | volasertib 0.056 | [8] -0.029 | epoxomicin -0.002 | [9] 0.013 | [10] -0.073 | [11] -0.011 | rosiglitazone -0.02 | [12] -0.04 | [13] 0.062

QSOX2 (UniProt Q6ZRP7)
inactive: [1] 0.011 | [2] -0.008 | [3] 0.016 | [4] -0.022 | Nexturastat A -0.063 | vemurafenib 0.01 | [5] -0.005 | [6] -0.084 | givinostat -0.015 | barasertib -0.025 | [7] -0.13 | volasertib -0.085 | [8] -0.034 | epoxomicin -0.097 | [9] 0.043 | [10] 0.006 | [11] 0.02 | rosiglitazone 0.006 | [12] -0.05 | [13] 0.033

Following part:

PSMA7 (UniProt O14818)
inactive: [1] -0.007 | [2] 0.048 | [3] -0.054 | [4] -0.015 | Nexturastat A -0.011 | vemurafenib -0.022 | [5] -0.093 | [6] -0.006 | givinostat -0.079 | barasertib -0.02 | [7] 0.07 | volasertib 0.136 | [8] -0.026 | epoxomicin -0.139 | [9] 0.031 | [10] 0.096 | [11] -0.019 | rosiglitazone -0.032 | [12] 0.015 | [13] 0.073

PSIP1 (UniProt O75475)
inactive: [1] 0.053 | [2] -0.019 | [3] -0.012 | [4] -0.056 | Nexturastat A 0.069 | vemurafenib -0.024 | [5] -0.009 | [6] 0.048 | givinostat -0.03 | barasertib -0.04 | [7] 0.095 | volasertib 0.096 | [8] 0 | epoxomicin -0.054 | [9] 0.029 | [10] 0.014 | [11] -0.041 | rosiglitazone -0.028 | [12] 0.121 | [13] -0.019

PWP1 (UniProt Q13610)
inactive: [1] -0.008 | [2] 0.013 | [3] -0.071 | [4] -0.182 | Nexturastat A 0.28 | vemurafenib -0.09 | [5] -0.027 | [6] 0.114 | givinostat -0.024 | barasertib -0.156 | [7] 0.263 | volasertib 0.586 | [8] -0.037 | epoxomicin -0.36 | [9] 0.092 | [10] 0.311 | [11] -0.138 | rosiglitazone -0.188 | [12] 0.387 | [13] 0.427

PSMA1 isoform 2 (UniProt P25786)
inactive: [1] 0.019 | [2] 0.028 | [3] -0.013 | [4] -0.011 | Nexturastat A -0.02 | vemurafenib -0.029 | [5] -0.036 | [6] 0.003 | givinostat -0.051 | barasertib -0.047 | [7] 0.04 | volasertib 0.156 | [8] -0.066 | epoxomicin -0.164 | [9] 0.022 | [10] 0.041 | [11] -0.039 | rosiglitazone -0.03 | [12] 0.011 | [13] 0.05

PSMD4 (UniProt P55036)
inactive: [1] -0.001 | [2] 0.05 | [3] -0.035 | [4] -0.019 | Nexturastat A 0.115 | vemurafenib -0.058 | [5] -0.028 | [6] 0.02 | givinostat -0.03 | barasertib -0.033 | [7] 0.033 | volasertib 0.169 | [8] 0.017 | epoxomicin -0.184 | [9] 0.015 | [10] 0.1 | [11] -0.023 | rosiglitazone -0.048 | [12] 0.012 | [13] 0.037

PRTFDC1 (UniProt Q9NRG1)
inactive: [1] -0.036 | [2] 0.019 | [3] 0.01 | [4] -0.033 | Nexturastat A -0.054 | vemurafenib -0.03 | [5] -0.038 | [6] -0.039 | givinostat -0.129 | barasertib 0.011 | [7] -0.004 | volasertib 0.091 | [8] -0.047 | epoxomicin 0 | [9] -0.044 | [10] 0.032 | [11] -0.056 | rosiglitazone 0.007 | [12] -0.054 | [13] -0.042

PUM2 (UniProt Q8TB72)
inactive: [1] -0.073 | [2] -0.023 | [3] -0.036 | [4] 0.035 | Nexturastat A 0.153 | vemurafenib 0.013 | [5] 0.011 | [6] -0.081 | givinostat -0.095 | barasertib 0 | [7] 0.015 | volasertib -0.032 | [8] 0.01 | epoxomicin 0.098 | [9] 0.029 | [10] 0.075 | [11] -0.159 | rosiglitazone 0.006 | [12] 0.037 | [13] -0.038

PSPH (UniProt P78330)
inactive: [1] -0.044 | [2] -0.016 | [3] 0.078 | [4] 0.047 | Nexturastat A -0.097 | vemurafenib -0.007 | [5] 0.052 | [6] -0.038 | givinostat -0.024 | barasertib -0.022 | [7] 0.02 | volasertib 0.003 | [8] -0.03 | epoxomicin -0.017 | [9] -0.003 | [10] -0.025 | [11] 0.041 | rosiglitazone 0.006 | [12] -0.053 | [13] -0.023
